{"sequences": {"note": "By UniProt entry, the sequences of proteins in these tests, tags left out.", "UniProt Q13283": "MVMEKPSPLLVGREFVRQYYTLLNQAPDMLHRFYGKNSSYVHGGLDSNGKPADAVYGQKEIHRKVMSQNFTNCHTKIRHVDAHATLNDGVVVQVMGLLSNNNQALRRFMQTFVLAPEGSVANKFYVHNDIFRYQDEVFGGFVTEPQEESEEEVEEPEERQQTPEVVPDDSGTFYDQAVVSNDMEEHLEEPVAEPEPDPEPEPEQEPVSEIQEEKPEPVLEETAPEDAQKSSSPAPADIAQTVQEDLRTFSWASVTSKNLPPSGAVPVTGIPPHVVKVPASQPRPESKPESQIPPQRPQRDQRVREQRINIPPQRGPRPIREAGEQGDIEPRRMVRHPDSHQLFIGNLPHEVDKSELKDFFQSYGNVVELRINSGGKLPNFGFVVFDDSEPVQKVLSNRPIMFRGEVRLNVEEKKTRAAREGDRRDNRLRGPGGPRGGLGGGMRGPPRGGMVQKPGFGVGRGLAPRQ", "UniProt P06730": "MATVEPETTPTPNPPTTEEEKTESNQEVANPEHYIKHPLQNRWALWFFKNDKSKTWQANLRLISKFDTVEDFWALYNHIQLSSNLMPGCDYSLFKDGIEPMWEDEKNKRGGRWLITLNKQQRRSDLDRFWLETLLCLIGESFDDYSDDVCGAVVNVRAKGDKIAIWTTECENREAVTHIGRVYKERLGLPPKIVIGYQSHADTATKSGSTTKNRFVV"}, "source": "paper PMC12647448", "target": "GTPase activating protein (SH3 domain) binding protein 1 (G3BP1) (human (endogenous in U-2 OS)) (UniProt Q13283)", "assay": "co-IP; U-2 OS cells with or without stress (arsenite, heat shock, UV); which protein was precipitated is not told in the text shown", "note": "These are yes or no findings as the source states them, for the method shown. In cells and extracts the contact can be indirect. Some binding calls cover weakened binding; strength is not graded here."}
{"substance": "eIF4E (from UniProt P06730 1-217)", "values": [{"measurement": "binding", "value": "binds"}]}
